Reference: patent publication US4223038A, “Bicyclic β-lactam antibiotics” (Beecham Group Limited, priority 1977, dated 1980)
For at least one compound, name, drawing or mass did not settle the structure.

How the values were obtained:
[1] = test system: β-lactamase, P. Mirab C889; test: β-Lactamase inhibition, automated hydroxyamine assay; type: biochemical; conditions: at 20 μg/ml
Method: (§1) Method was automated hydroxyamine assay except for compounds marked + which were tested using the automated chromagenic substrate assay.
(§2) Results are presented as concentration of compounds in μg/ml for 50% inhibition of enzyme, except a percentage indicates amount of inhibition at maximum concentration of 20 μg/ml (50 μg/ml for asterisked figures).

β-lactamase, Ps aerug A = test: as above; type: biochemical; conditions: at 20 μg/ml
Method: as §1, §2

For `CC[S+]([O-])C1=C(C(=O)OC2OC(=O)c3ccccc32)N2C(=O)C(CC=CC(=O)OC)C2C1` (centres unmarked) [Compound 78, Phthalidyl 3-ethylsulphinyl-6-(3-methoxycarbonylprop-2-en-1-yl)-7-oxo-1-azabicyclo[3.2.0]hept-2-ene-2-carboxylate], the “amount of inhibition at maximum concentration” value [1] was 40% and the “amount of inhibition at maximum concentration” value (β-lactamase, Ps aerug A) was 38%.
